± gives the standard deviation. The list shows a part of the results, in another mix than the full data. The uncertainty is large for many entries.
Tested on: MIWI (PIWIL1) piRISC loaded with L1MC piRNA (30 nt)
Assay: pre-steady-state target cleavage rate (min^-1); MIWI and MILI are mouse PIWI proteins and EfPiwi is from a freshwater sponge; tags in brackets are library labels; higher = faster piRNA-guided slicing of the target
Settings: guide: L1MC piRNA 5'p-UAACUAAAUACUAUGCAAGCUGUAGGUCCU
Procedure, shortened: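 The method was Cleave-'n-Seq, in which uncleaved targets from a transcribed, DNA-blocked target RNA library were sequenced after exposure to active affinity-purified piRISC carrying one synthetic guide, with or without GTSF1 partner protein. Reactions contained 0.1 nM library, 1 nM piRISC and, where present, 500 nM GTSF1 in HEPES–potassium acetate buffer at 33 °C for 0–8 or 0–960 min. Reads were normalised to depth and to weakly complementary targets, three trials were pooled, and k3 was capped at 0.0001 min^-1. The pre-steady-state cleavage rate came from a burst-and-steady-state fit.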

[1] = auxiliary factor: 500 nM mouse GTSF1
[2] = auxiliary factor: none (no GTSF1)

Row | Sequence | pre-steady-state target cleavage rate [1] | pre-steady-state target cleavage rate [2]
1 | AGACCUACAGCUUGCAUAGUAUUUAGUUA | 1.46 ± 0.052 | 0.0902 ± 0.017
2 | UCGACCUCAGCUUGCAUAGUAUUUAGUUA | 1.38 ± 0.056 | 0.064 ± 0.013
3 | UGGACCUACACGUUGCAUAGUAUUUAGUAA | 0.575 ± 0.039 | 0.00987 ± 0.0024
4 | AGGACAUACAGCUUGCAUAGUAUUUAGUUA | 1.32 ± 0.055 | 0.0818 ± 0.012
5 | AGGACCUAAGCUUGCAUAGUAUUUAGUUA | 1.05 ± 0.071 | 0.0685 ± 0.013
6 | UCGACCUACAGCUUGCGUAGUAUUUAGUUA | 1.86 ± 0.066 | 0.0695 ± 0.018
7 | UCCACCUACAGCUUGUAUAGUAUUUAGUUA | 1.18 ± 0.048 | 0.0524 ± 0.0091
8 | UGGACCUACAGCUUGCAUACAUUUUAGUAA | 0.00226 ± 0.0047 | 0.000255 ± 0.011
9 | UGGAGCUACAGCUUCCAUAGUAUUUAGUUA | 0.275 ± 0.047 | 0.00584 ± 0.0013
10 | UCGACCUACAGCUUGCAAAGUAUAUAGUUA | 0.855 ± 0.055 | 0.0157 ± 0.0033
11 | UGGACCUACAGCUCGCAUAGUAUUUAGUUA | 1.54 ± 0.096 | 0.0604 ± 0.0083
12 | AGGAGCUACAGCUUGGAUAGUAUUUAGUUA | 1.17 ± 0.081 | 0.0558 ± 0.0094
13 | UCGACCUACAGCUUGCAAAGUAUUUACAAA | 0.33 ± 0.035 | 0.00465 ± 0.002
14 | UCCAUCCUACAGCUUGCAUAGUAUUUAGUUA | 0.558 ± 0.029 | 0.0561 ± 0.0096
15 | UCCUGGAUGUCGAACCAUUGUUUUUAGUUA | 0.000264 ± 0.02 | 0.000364 ± 0.013
16 | AGGAGCUACAGCUAGCAUAGUAUUUAGUUA | 1.28 ± 0.076 | 0.0359 ± 0.0079
17 | UGGACCUACAGGUUGGAUAGUAUUUAGUUA | 1.33 ± 0.091 | 0.0484 ± 0.0079
18 | UCCACCUACACCUUGCAUAGUAUAUAGUUA | 0.543 ± 0.068 | 0.025 ± 0.0054
19 | UCCACCUUACAGCUUGCAUAGUAUUUAGUUA | 1.03 ± 0.043 | 0.0654 ± 0.013
20 | UGGACCUACGCUUGCAUAGUAUUUAGUUA | 1.4 ± 0.081 | 0.046 ± 0.008
21 | UGGACCUACAGCUUGCAUUCAAUUUACAAA | 0.00141 ± 0.0055 | 0.000168 ± 0.011
22 | AGGACCUACCAGCUUGCAUAGUAUUUAGUUA | 1.17 ± 0.069 | 0.0704 ± 0.014
23 | UCCUGGAUGUGCUUGCAUUGUUUUUAGUUA | 0.0048 ± 0.0031 | 0.00283 ± 0.004
24 | UCGACCUUCAGCUUGCAUAGUAUUUAGUUA | 1.51 ± 0.047 | 0.0696 ± 0.012
25 | UGCACCAACAGCUUGCAUAGUAUUUAGUUA | 1.23 ± 0.056 | 0.0613 ± 0.0098
26 | UCCAACUACAGCUUGCAUAGUAUUUAGUUA | 0.646 ± 0.038 | 0.0478 ± 0.0076
27 | UCCUGGAUGUCGAACGUUAGUUUUAAGUUA | 0.000319 ± 0.013 | 0.000351 ± 0.012

Full records as entered above.
AGGAGCUACAGCUUGGAUAGUAUUUAGUUA is listed with pre-steady-state target cleavage rate [1] = 1.17 ± 0.081; pre-steady-state target cleavage rate [2] = 0.0558 ± 0.0094
AGGACCUAAGCUUGCAUAGUAUUUAGUUA is listed with pre-steady-state target cleavage rate [1] = 1.05 ± 0.071; pre-steady-state target cleavage rate [2] = 0.0685 ± 0.013

Remaining list, next part

Row | Sequence | pre-steady-state target cleavage rate [1] | pre-steady-state target cleavage rate [2]
28 | UGGACCUACAGCUACGAUAGUAUUUAGAAA | 0.00138 ± 0.0055 | 0.000317 ± 0.0079
29 | UCGAGCUACAGCUUGCAUAGUAUUUAGAUA | 0.443 ± 0.041 | 0.0206 ± 0.0046
30 | UGGACCUACAGCUUGCAUAGUAUUUACUUA | 0.24 ± 0.021 | 0.0361 ± 0.0058
31 | AGGACCUAGUGCUUGCAUAGUAUUUAGUAA | 0.457 ± 0.051 | 0.0314 ± 0.0063
32 | AGGACCACAGCUUGCAUAGUAUUUAGUUA | 1.29 ± 0.066 | 0.0967 ± 0.019
33 | UGGACAUACAGCUUGCAUAGUAUUUAGUUA | 1.23 ± 0.05 | 0.0916 ± 0.014
34 | UGGACCUACUGCAUGCAUAGUAUUUAGUUA | 1.27 ± 0.08 | 0.0325 ± 0.0061
35 | UCCUGGUACAGCUUGCAUAUGUAUUUAGUUA | 0.00371 ± 0.0053 | 0.00127 ± 0.009
36 | AGGACACUACAGCUUGCAUAGUAUUUAGUUA | 1.13 ± 0.083 | 0.0749 ± 0.011
37 | AGCACCUACAGCUUGGAUAGUAUUUAGUUA | 0.99 ± 0.049 | 0.0433 ± 0.0065
38 | UGGACCUACUGCUUGCAUAGUAAUUAGUUA | 0.866 ± 0.04 | 0.033 ± 0.0084
39 | UCCACCUACAGCUUGCAUAAUAUUUAGUUA | 0.552 ± 0.049 | 0.0203 ± 0.0032
40 | AGGACCUACAACUUGCAUAGUAUUUAGUUA | 1.08 ± 0.031 | 0.0712 ± 0.011
41 | UCCACCUACAGCUUGGAUAGUAUUUUCAAA | 0.0295 ± 0.012 | 0.000834 ± 0.0047
42 | AGGACCUACAGCUUGCAAAGUAUUUAGUUA | 1.26 ± 0.053 | 0.0478 ± 0.0089
43 | UGGACCAACAGCUUGCAUAGUAUUUAGUUA | 1.35 ± 0.047 | 0.0769 ± 0.013
44 | UCCUCCUACCAGCUUGCAUAGUAUUUAGUUA | 1.15 ± 0.055 | 0.0479 ± 0.011
45 | UCCACGUACAGCUUGGAUAGUAUUUAGUUA | 1.14 ± 0.065 | 0.0509 ± 0.0081
46 | AGGACCUCCAGCUUGCAUAGUAUUUAGUUA | 1.22 ± 0.048 | 0.0926 ± 0.018
47 | UGGACCUACAGCUUGCAUAGAUAUUACAAA | 0.0031 ± 0.004 | 0.000159 ± 0.016
48 | UCCACCUCCAGCUUGCAUAGUAUUUAGUUA | 0.89 ± 0.033 | 0.0442 ± 0.0078
49 | UGGACCUACAGCUUGCAUAGUAUUUAGUUG [g2:g29:cont:t1G] | 0.456 ± 0.037 | 0.0555 ± 0.01
50 | AGGUGCUACAGCUUGCAUAGUAUUUAGUUA | 1.23 ± 0.064 | 0.0832 ± 0.016
51 | AGGACCUACAGCAACCAUAGUAUUUAGUUA | 0.426 ± 0.039 | 0.00122 ± 0.004
52 | UGGACCUACAGCUUGCAUAGUAUAAACAAA | 0.14 ± 0.028 | 0.00145 ± 0.0043
53 | UGGACCUUCUGCUUGCAUAGUAUUUAGUUA | 1.3 ± 0.066 | 0.0534 ± 0.0096
54 | UCCACCUACAGGUUGCAUAGUAUUUACAAA | 0.336 ± 0.052 | 0.00135 ± 0.004
